# The other results are listed elsewhere or left out. The data scatter; read single values as rough.
# Sequences of proteins named here, by UniProt entry; tags and fusion partners are left off. A change or cut given only in a name is not applied to a line headed by its entry. Residues count along the entry.
# UniProt Q13535: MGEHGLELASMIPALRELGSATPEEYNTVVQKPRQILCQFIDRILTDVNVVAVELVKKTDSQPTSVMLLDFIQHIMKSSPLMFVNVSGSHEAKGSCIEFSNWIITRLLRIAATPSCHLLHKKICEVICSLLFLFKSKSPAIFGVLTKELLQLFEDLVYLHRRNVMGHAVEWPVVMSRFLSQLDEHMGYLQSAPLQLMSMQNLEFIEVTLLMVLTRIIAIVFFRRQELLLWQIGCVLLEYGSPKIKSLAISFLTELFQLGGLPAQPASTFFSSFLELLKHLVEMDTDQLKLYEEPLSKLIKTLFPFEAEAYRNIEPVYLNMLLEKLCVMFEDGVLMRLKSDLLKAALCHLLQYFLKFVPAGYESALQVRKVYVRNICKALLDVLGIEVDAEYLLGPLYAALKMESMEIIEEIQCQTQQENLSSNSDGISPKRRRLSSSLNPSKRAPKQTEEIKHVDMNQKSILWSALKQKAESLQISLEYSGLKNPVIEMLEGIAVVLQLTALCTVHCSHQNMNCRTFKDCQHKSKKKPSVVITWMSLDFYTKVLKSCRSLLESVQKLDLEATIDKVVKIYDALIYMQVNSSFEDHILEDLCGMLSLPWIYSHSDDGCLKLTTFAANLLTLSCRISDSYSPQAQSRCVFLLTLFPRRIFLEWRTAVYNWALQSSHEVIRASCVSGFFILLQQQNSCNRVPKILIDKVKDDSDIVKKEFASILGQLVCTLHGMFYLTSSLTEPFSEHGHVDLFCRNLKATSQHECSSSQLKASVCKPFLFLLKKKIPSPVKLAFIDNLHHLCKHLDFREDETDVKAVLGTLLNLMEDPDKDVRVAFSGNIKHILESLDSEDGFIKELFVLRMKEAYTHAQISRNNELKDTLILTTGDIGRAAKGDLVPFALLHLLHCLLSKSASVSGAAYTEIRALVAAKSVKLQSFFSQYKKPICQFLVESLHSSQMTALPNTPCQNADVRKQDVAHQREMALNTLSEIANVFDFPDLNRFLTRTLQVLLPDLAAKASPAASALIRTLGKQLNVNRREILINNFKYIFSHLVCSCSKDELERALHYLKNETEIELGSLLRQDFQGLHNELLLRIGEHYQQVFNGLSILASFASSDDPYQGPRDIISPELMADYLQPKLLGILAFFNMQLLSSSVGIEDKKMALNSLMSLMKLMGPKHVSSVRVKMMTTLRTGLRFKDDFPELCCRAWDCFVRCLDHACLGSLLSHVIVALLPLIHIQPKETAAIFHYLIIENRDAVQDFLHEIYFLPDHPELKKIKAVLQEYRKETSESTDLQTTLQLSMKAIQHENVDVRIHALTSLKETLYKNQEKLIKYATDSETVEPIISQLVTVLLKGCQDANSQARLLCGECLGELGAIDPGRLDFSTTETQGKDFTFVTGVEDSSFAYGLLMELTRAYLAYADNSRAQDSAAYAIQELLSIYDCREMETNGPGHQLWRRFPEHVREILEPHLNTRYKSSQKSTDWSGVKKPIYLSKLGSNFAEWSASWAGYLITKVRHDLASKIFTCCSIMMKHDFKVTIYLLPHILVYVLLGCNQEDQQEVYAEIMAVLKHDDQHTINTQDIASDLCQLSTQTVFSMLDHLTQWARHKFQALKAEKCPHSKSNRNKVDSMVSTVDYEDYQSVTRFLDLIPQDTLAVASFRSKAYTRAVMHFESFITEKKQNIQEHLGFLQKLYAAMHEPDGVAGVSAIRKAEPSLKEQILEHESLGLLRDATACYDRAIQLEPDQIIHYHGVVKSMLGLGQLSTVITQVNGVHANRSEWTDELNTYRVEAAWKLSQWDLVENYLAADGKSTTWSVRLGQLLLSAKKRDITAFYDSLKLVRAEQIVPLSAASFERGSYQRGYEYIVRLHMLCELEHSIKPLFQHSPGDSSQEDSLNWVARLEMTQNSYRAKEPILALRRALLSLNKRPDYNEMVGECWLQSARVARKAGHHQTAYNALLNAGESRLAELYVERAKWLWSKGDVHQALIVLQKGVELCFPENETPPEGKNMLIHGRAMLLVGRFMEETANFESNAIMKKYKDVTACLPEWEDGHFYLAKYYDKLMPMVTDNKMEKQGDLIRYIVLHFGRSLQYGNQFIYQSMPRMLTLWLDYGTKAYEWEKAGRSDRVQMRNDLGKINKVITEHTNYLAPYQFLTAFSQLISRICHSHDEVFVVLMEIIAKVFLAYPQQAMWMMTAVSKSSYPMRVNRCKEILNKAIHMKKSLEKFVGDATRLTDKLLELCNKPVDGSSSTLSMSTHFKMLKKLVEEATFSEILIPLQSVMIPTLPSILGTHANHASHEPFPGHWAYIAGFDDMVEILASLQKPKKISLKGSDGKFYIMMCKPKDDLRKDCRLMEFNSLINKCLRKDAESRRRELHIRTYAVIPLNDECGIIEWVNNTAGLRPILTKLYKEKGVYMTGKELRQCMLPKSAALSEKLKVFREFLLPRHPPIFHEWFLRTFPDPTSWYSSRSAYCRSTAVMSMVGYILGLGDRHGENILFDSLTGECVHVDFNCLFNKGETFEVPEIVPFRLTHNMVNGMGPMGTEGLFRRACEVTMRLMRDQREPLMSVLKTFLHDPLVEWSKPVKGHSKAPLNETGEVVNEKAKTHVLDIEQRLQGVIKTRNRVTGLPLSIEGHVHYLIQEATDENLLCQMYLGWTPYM
# UniProt O14867: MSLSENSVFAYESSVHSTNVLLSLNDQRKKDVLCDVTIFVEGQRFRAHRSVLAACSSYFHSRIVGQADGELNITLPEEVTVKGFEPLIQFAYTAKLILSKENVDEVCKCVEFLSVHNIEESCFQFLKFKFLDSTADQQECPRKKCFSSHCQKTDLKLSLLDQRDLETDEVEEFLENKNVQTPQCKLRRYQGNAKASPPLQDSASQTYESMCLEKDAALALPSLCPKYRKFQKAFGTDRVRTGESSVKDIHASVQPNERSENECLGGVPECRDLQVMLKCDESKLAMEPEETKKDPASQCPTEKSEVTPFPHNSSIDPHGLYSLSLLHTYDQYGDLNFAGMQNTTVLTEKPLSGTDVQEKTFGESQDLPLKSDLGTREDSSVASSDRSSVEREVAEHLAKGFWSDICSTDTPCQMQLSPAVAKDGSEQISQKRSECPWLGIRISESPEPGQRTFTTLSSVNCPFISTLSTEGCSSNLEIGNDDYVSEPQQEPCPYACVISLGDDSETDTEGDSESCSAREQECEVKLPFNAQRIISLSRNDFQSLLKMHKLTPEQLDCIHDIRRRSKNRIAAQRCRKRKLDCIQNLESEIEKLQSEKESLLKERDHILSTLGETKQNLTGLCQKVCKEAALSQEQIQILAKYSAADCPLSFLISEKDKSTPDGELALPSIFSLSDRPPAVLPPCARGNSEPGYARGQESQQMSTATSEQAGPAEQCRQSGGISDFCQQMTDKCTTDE
# UniProt Q13315: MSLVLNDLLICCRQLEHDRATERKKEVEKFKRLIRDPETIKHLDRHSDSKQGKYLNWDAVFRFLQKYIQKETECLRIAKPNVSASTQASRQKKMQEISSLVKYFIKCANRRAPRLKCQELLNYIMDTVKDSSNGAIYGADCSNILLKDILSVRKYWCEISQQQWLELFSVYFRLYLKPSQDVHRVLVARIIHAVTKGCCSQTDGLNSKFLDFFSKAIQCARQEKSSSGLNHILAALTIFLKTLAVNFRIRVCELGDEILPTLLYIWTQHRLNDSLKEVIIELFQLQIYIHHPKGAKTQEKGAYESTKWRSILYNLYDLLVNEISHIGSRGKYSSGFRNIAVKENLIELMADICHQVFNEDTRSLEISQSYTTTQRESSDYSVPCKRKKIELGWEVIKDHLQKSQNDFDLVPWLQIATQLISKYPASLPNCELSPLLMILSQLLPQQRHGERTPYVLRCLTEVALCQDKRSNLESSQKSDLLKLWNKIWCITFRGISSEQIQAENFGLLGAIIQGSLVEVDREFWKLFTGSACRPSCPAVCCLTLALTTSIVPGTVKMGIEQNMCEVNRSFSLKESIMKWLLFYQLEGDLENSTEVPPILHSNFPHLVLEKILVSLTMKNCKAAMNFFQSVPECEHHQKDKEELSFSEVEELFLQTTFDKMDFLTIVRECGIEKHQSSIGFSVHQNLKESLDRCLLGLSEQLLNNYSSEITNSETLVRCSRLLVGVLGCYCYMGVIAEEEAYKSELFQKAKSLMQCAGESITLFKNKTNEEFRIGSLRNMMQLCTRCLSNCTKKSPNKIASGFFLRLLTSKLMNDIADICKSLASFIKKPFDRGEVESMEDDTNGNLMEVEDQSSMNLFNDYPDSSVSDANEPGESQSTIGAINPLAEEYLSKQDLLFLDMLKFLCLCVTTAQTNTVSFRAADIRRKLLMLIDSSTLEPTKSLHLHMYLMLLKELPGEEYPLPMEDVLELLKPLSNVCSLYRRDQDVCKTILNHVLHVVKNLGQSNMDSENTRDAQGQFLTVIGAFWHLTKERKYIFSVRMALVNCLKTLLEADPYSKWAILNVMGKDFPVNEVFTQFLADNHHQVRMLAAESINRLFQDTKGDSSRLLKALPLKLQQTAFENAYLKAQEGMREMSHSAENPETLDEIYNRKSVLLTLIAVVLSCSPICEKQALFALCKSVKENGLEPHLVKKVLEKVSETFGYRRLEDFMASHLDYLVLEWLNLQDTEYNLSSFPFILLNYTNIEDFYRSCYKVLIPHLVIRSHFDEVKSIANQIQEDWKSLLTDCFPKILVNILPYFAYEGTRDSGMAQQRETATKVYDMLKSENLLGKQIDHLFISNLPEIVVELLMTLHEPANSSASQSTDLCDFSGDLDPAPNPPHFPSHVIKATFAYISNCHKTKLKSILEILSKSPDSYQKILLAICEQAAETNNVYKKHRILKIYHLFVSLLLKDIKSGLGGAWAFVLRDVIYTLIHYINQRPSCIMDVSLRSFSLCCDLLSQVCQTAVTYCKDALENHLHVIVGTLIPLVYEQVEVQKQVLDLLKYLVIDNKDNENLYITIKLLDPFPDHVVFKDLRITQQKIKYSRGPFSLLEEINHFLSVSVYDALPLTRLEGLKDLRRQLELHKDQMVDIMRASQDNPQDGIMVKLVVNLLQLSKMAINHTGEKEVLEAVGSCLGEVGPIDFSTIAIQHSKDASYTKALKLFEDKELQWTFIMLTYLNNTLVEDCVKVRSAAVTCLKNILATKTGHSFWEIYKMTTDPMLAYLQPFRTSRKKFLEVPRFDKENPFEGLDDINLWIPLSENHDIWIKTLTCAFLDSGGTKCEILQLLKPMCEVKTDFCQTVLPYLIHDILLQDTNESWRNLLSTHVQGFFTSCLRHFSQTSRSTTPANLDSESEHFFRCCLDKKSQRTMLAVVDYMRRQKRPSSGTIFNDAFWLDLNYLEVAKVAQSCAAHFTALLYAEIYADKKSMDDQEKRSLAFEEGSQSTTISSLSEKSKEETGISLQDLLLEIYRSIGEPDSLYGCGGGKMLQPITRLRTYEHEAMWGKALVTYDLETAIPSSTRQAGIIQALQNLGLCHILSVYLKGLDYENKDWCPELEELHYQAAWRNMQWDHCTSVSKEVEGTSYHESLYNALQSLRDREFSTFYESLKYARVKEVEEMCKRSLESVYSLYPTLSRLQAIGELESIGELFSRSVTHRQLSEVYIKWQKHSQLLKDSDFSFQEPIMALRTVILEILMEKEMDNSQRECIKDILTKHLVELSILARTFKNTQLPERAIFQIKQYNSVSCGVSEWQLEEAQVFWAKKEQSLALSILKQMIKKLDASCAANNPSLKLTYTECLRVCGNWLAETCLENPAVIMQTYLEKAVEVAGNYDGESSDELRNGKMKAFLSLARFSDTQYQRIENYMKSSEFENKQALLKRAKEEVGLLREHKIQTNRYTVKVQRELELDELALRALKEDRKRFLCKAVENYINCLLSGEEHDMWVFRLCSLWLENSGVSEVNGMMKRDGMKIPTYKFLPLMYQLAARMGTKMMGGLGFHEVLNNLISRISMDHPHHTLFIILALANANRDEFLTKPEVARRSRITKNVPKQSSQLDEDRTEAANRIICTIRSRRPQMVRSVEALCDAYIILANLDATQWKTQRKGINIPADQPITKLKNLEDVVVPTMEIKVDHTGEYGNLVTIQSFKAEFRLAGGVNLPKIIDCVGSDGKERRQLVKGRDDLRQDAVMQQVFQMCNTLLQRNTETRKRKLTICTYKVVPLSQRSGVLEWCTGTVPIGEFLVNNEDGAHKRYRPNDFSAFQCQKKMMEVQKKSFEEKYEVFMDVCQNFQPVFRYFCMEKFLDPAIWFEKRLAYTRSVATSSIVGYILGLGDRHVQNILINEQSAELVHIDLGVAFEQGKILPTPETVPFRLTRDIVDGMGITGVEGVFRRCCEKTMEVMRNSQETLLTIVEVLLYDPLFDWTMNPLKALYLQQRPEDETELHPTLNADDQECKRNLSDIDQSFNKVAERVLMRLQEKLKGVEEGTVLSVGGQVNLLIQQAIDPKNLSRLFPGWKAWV
# UniProt Q04656, 270-289: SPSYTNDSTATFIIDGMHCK
# UniProt Q9UL15, 308-329: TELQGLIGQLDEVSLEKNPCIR
# UniProt P48047, 137-158: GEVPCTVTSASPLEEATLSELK
# UniProt Q8TDH9, 2-21: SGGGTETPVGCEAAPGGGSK
# UniProt Q6W2J9, 1330-1349: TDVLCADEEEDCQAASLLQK
# UniProt Q2TAZ0, 1260-1281: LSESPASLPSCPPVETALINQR
# UniProt P54132, 605-629: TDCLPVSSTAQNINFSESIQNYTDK
# Legend:
# [1] = compound: ClCC(=O)N[C@@H]1CCCc2ccccc12; assay: log2 mean competition ratio of IA-DTB cysteine labelling (DMSO/compound) (log2 ratio); higher = stronger cysteine engagement by compound; conditions: treatment time: 4 h, cell line lysate: HEK293T
# Protocol: (§1)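 IA-DTB competitive cysteine chemoproteomics in HEK293T RIPA lysate. Lysates were treated with compound 29 or 30 at 50 or 200 µM for 4 h, then IA-DTB (500 µM, 1 h), trypsin-digested, NeutrAvidin-enriched and analysed by diaPASEF. Competition ratio = intensity DMSO / intensity compound (n=4 treated, n=64 DMSO); binding: mean log2 CR ≥ 1 and p ≤ 0.05 plus QC filters. Target is the cysteine site.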
# [2] = compound: ClCC(=O)N[C@H]1CCCc2ccccc12; assay: as above; conditions: treatment time: 4 h, cell line lysate: HEK293T
# Protocol: as §1
Target,log2 mean competition ratio ([1]; 50 µM),log2 mean competition ratio ([1]; 200 µM),log2 mean competition ratio ([2]; 200 µM),log2 mean competition ratio ([2]; 50 µM)
ATP2B4 C537 (UniProt P23634),0.0453,-0.346,–,–
ATAD5 C1720 (UniProt Q96QE3),-0.0308,-0.0212,–,–
ATR C38 (UniProt Q13535),-0.119,-0.21,–,–
ATR C753 (UniProt Q13535),-0.0739,-0.011,–,–
BACH1 C435 (UniProt O14867),0.0144,0.0715,–,–
ATP2A2 C997 (UniProt P16615),-0.0969,-0.0826,–,–
ATM C633 (UniProt Q13315),-0.0033,-0.192,–,–
BBX C874 (UniProt Q8WY36),-0.0842,0.186,–,–
ATXN7L2 C585 (UniProt Q5T6C5),0.0747,-0.158,–,–
BAZ1A C404 (UniProt Q9NRL2),-0.581,0.104,–,–
ASPSCR1 C174 (UniProt Q9BZE9),-0.269,-0.318,–,–
ATG2B C243 (UniProt Q96BY7),0.118,0.127,–,–
BBX C150 (UniProt Q8WY36),0.577,-0.0855,–,–
BACH2 C328 (UniProt Q9BYV9),-0.173,0.862,–,–
ATP6V0A1 C247 (UniProt Q93050),0.462,-0.175,–,–
BCAR3 C261 (UniProt O75815),0.248,0.171,–,–
ASXL2 C827 (UniProt Q76L83),0.291,0.0324,–,–
BACH1 C184 (UniProt O14867),-0.131,0.0968,–,–
BAHD1 C703 (UniProt Q8TBE0),-0.455,-0.419,–,–
ASPM C95 (UniProt Q8IZT6),0.124,-0.13,–,–
BLOC1S3 C168 (UniProt Q6QNY0),0.253,-0.129,–,–
ATP7A C160 (UniProt Q04656),-0.0359,0.151,–,–
ASXL1 C672 (UniProt Q8IXJ9),0.0619,0.28,–,–
B3GALNT2 C198 (UniProt Q8NCR0),-0.00213,0.211,–,–

Target,log2 mean competition ratio ([1]; 50 µM),log2 mean competition ratio ([1]; 200 µM),log2 mean competition ratio ([2]; 200 µM),log2 mean competition ratio ([2]; 50 µM)
BDP1 C689 (UniProt A6H8Y1),-0.085,-0.254,–,–
BAG5 C327 (UniProt Q9UL15),-0.104,0.21,–,–
ATP6V1C1 C376 (UniProt P21283),-0.0491,-0.125,–,–
ATM C1286 (UniProt Q13315),0.0856,-0.289,–,–
ATF7IP C451 (UniProt Q6VMQ6),0.285,0.0253,–,–
BAG1 C213 (UniProt Q99933),-0.0997,-0.00633,–,–
ATG7 C322 (UniProt O95352),0.113,0.101,–,–
ATP6V1A C138 (UniProt P38606),0.0925,0.435,–,–
BACH1 C140 (UniProt O14867),0.0457,0.33,–,–
ATM C564 (UniProt Q13315),-0.226,0.037,–,–
ATR C1721 (UniProt Q13535),-0.0652,0.129,–,–
ATF7 C398 (UniProt P17544),0.586,0.253,0.123,–
ATP7B C268 (UniProt P35670),0.0228,0.0423,–,–
ATL2 C441 (UniProt Q8NHH9),-0.241,0.178,–,–
ATP7A C288 (UniProt Q04656),0.249,-0.073,–,–
ATP13A2 C365 (UniProt Q9NQ11),-0.105,0.0856,–,–
ATXN10 C283 (UniProt Q9UBB4),-0.302,0.0779,0.0314,-0.262
ATP13A1 C711 (UniProt Q9HD20),-0.202,-0.402,–,–
ATAD2 C484 (UniProt Q6PL18),0.0502,0.361,–,–
ATP5PO C141 (UniProt P48047),-0.0429,-0.0458,–,–
BACH2 C370 (UniProt Q9BYV9),-0.0111,0.197,0.316,0.0108
ASXL2 C144 (UniProt Q76L83),0.475,-0.337,-0.471,0.546
ATP13A3 C1220 (UniProt Q9H7F0),-0.471,-0.456,0.0636,–
ATP13A3 C168 (UniProt Q9H7F0),0.0635,0.0284,-0.319,–

# Quoted from the listing.
# Under log2 mean competition ratio ([1]; 200 µM), BAG1 C213 (UniProt Q99933) is listed with -0.00633
# Under log2 mean competition ratio ([1]; 200 µM), ATP13A1 C711 (UniProt Q9HD20) is listed with -0.402
# Under log2 mean competition ratio ([1]; 50 µM), ATM C1286 (UniProt Q13315) is listed with 0.0856

# Remaining list, next part

Target,log2 mean competition ratio ([1]; 50 µM),log2 mean competition ratio ([1]; 200 µM),log2 mean competition ratio ([2]; 200 µM),log2 mean competition ratio ([2]; 50 µM)
BLOC1S5 C117 (UniProt Q8TDH9),-0.0785,0.249,–,–
BDP1 C2126 (UniProt A6H8Y1),-0.269,-0.476,-0.384,–
BCOR C494 (UniProt Q6W2J9),-0.101,-0.243,-0.309,0.215
BCAS3 C479 (UniProt Q9H6U6),0.124,-0.151,–,–
ATG2A C1270 (UniProt Q2TAZ0),-0.175,0.194,–,–
BLOC1S5 C12 (UniProt Q8TDH9),-0.132,-0.251,–,–
ATP6V1A C277 (UniProt P38606),-0.0852,-0.171,–,–
"BCOR_(C1334,C1334,C1341,C1341) (UniProt Q6W2J9)",-0.533,0.444,–,-0.322
BAG5 C360 (UniProt Q9UL15),0.16,-0.203,–,–
BCL2L12 C254 (UniProt Q9HB09),0.203,0.158,–,–
BCKDHB C299 (UniProt P21953),-0.327,-0.211,–,–
ATP2C1 C839 (UniProt P98194),-0.406,-0.434,-0.389,–
BMP2K C92 (UniProt Q9NSY1),0.262,0.0987,–,–
ATP2C1 C669 (UniProt P98194),-0.271,0.15,–,–
BCKDHA C197 (UniProt P12694),-0.142,0.236,–,–
ATG2B C1688 (UniProt Q96BY7),0.0848,-0.0226,–,–
ATP2B4 C639 (UniProt P23634),-0.285,0.08,–,–
BCKDHB C316 (UniProt P21953),0.0721,-0.286,0.0464,0.0632
ATP6V0A2 C680 (UniProt Q9Y487),0.06,0.0632,–,–
BAG5 C191 (UniProt Q9UL15),0.491,0.0336,–,–
ATP6V1B2 C112 (UniProt P21281),-0.0322,-0.265,–,–
ATM C2323 (UniProt Q13315),0.246,-0.0682,–,–
BLM C607 (UniProt P54132),0.0698,-0.0511,–,–
BAZ1A C547 (UniProt Q9NRL2),-0.142,0.179,0.262,-0.339

# From the supplement of paper PMC11732987, “Enantioselective OTUD7B fragment discovery through chemoproteomics screening and high-throughput optimisation” (Communications Chemistry, 2025)
